We go through 1 sequence from article doi:10.1101/2022.11.04.515179.

Amino acid sequences for entries named in this document (tags omitted).
UniProt O15527, whole entry: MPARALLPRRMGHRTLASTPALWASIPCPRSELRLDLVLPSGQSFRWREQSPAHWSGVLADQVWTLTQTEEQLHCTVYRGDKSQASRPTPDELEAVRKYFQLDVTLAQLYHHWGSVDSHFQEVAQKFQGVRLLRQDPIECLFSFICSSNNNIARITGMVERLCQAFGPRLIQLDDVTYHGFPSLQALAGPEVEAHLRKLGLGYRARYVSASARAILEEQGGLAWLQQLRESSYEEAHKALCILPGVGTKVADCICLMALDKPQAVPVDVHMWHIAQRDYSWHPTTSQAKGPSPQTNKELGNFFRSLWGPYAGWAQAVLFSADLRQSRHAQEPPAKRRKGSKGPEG

For at least one entry, the source does not settle the construct or the ends of the probe. At least one verdict rests on a figure or table, not on a statement of the authors.

This series deals with GST-OGG1 WT (human) (UniProt O15527). Kind of series: EMSA. Conditions: 0-160 nM protein; 8-oxoG at position 16 of strand 1; residues 1-345. Background: Mobility shift assays separate free from complexed probe on a gel.

“GGCTTCATCGTTGTCGCAGACCTGGTGGATACCG (double strand) [Cy5 34-mer 8-oxoG:C]”: the binding result is “binds”.
